In US20070248599A1 (priority 2006, published 2007) one finds binding data, which are given here for two substances.

The target in test [1] is T1, human X11α (human) (UniProt Q02410).
T1 sequence: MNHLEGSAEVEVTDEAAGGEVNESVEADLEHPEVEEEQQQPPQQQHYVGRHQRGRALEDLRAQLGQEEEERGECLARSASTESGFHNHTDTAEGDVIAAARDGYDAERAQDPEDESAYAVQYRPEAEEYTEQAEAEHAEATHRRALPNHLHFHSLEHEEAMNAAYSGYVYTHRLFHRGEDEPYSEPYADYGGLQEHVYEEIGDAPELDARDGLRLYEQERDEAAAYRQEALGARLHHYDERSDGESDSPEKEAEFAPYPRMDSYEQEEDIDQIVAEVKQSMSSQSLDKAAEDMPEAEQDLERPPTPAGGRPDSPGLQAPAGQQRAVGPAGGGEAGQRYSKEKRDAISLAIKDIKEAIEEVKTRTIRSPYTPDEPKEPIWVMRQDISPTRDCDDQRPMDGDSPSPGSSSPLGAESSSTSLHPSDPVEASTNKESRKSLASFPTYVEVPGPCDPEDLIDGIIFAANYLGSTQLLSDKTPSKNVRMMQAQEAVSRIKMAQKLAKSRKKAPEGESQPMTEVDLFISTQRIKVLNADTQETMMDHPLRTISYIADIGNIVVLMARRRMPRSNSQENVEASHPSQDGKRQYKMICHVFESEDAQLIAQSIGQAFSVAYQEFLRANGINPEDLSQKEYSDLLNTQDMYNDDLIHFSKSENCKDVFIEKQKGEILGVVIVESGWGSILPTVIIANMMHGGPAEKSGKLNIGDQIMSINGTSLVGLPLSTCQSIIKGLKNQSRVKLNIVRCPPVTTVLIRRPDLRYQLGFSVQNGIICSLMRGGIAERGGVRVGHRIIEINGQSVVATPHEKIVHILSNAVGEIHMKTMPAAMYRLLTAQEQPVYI
The test is described as follows: GST pull-down of X11α from cell lysate, Western blot (FIG. 8B). A general note: Immunoblotting shows a protein as a band on a membrane.

In test [2] the target is T1, human X11α (human). As to the kind of experiment: GST pull-down of X11 from cell lysate, Western blot (FIG. 8B); members named in the legend.

These are yes or no findings as the source states them, for the method shown. In cells and extracts the contact can be indirect. A result given as binding can be weak or reduced; the word gives no strength.

Take “GST-ApoC3 (926-996), GST fusion of ApoER2 cytosolic domain (murine)”: the binding result in the test with human X11α (human) [1] and in the test with human X11α (human) [2] was “binds” in each case.

As to “GST-ApoC1 (881-996), GST fusion of ApoER2 cytosolic domain (murine)”, the binding entry in the test with human X11α (human) [1] and with human X11α (human) [2] was “binds” each time.
